Some of these results come from one statement about several compounds together.
test system: osteosarcoma cells transduced with dNK-pLXSN; test: Cell proliferation assay (MTT); assay type: cell-based, human; settings: versus wild-type and LXSN vector cells; four days of drug exposure

Row | SMILES | higher sensitivity of cells transduced with dNK-LXSN
1 | Nc1ccn([C@@H]2O[C@H](CO)[C@@H](O)[C@@H]2O)c(=O)n1 [AraC, 1-β-D-arabinofuranosylcytosine] | 10- to 1000 fold
2 | O=c1[nH]c(=O)n([C@H]2C[C@H](O)[C@@H](CO)O2)cc1F [FdU, 5-fluorodeoxyuridine] | 10- to 1000 fold
3 | Nc1ccn([C@@H]2O[C@H](CO)[C@@H](O)C2(F)F)c(=O)n1 [dFdC, 2′,2′-difluorodeoxycytidine] | 10- to 1000 fold
